In paper PMC5716531:
No constants are given. Whether binding was seen depends on the method and setting. Some results given as binding are weak or reduced against the parent protein; the word gives no strength. Tags and fused reporters may be left off the sequences shown.

Chains of the proteins cited; added tags and fusions are not shown. Lines headed by an entry give the natural chain unless they say otherwise; changes in a name come on top.
UniProt P07305: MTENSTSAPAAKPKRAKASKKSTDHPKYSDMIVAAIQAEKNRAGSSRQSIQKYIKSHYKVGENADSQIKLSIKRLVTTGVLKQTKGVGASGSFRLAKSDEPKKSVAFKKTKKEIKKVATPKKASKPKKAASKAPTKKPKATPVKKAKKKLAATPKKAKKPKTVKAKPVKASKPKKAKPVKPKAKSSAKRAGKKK

Target: T1, S. pombe Nap1 histone chaperone (nucleosome assembly protein 1) (S. pombe) (UniProt O59797)
T1 sequence: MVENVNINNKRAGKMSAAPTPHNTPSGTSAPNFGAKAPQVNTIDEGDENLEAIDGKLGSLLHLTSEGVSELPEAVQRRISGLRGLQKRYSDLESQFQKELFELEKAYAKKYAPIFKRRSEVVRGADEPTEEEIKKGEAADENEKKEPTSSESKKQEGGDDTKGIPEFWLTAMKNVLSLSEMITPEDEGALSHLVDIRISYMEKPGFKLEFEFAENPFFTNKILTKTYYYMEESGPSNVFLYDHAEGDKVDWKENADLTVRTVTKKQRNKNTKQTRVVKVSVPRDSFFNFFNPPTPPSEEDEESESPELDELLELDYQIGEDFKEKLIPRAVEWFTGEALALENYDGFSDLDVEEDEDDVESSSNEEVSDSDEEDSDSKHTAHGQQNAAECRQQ
Assay: native gel or EMSA; Nap1 (1 ug) mixed with histone, 30 min at room temperature; 15 mM HEPES/NaOH pH 7.5, 150 mM NaCl, 1 mM DTT; 6% native polyacrylamide gel in 1x TBE at 4 C, SimplyBlue SafeStain; both purified

Substance | binding
H. sapiens H1.0 linker histone C-terminal domain (residues 96-end) (from UniProt P07305 96-194) (domain or fragment) | binds
H. sapiens H1.0 linker histone N-terminal and globular domains (residues 1-95) (from UniProt P07305 1-95) (domain or fragment) | binds
Homo sapiens H1.0 linker histone, full-length (H1.0-His6 after removal of GST) (from UniProt P07305 1-194) | binds
